# Screen size: about 53,000 sequences; about 3,700 (7%) were called active.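 How the source made its calls: active means gene knockdowns whose robust z-score for IL-1 alpha signal is at least 2 or at most -2, so actives lie on both sides; inactive means the rest.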 Some of the results follow.
# Assay: Components of the Cytosolic LPS Sensing Pathway: Gene Identification via Genome-wide siRNA Screen;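 further: robust z of the log signal after scaling to non-targeting control siRNA wells of the plate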
# Details: RAW264.7 macrophages, IL-1a HTRF, actives lie on both sides, screened at 100 nM (by protocol), cells primed 5 h with Pam3CSK4 first
# How it was run: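 RAW264.7 mouse macrophages reverse-transfected with single siRNAs (100 nM final) for 48h, primed with Pam3CSK4 for 5 hours, then transfected with LipidA for 24 hour. Supernatant IL-1a read by HTRF; values normalized to negative-control median, log-transformed robust z-scores.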
row,Sequence,z-score
1,GGUGAAGUUUUUCUACUUGTT against Tram2,inactive: -0.915
2,GGACAAGUUUAACAGGAAUTT against Apoa4,inactive: -0.508
3,GGAAUGGUUGCCUCUGUUATT against Olfr1182,inactive: -0.0442
4,CCCUCGUUGCUUUCUGCAUTT against Slc16a8,inactive: 0.0792
5,GGAUUUUUGCCUCUAACUUTT against Bysl,inactive: 0.604
6,GGACUUUGAGGAGAAGGAUTT against Rabep2,inactive: -1.34
7,GCGAAUUUUUGACACCUAUTT against Elmod2,inactive: 0.888
8,GCCAAAUUUUGGGAUGUAATT against Dtl,inactive: 1.6
9,GGCUCUAGGACCAAAAUUUTT against Hsd3b2,inactive: -0.0259
10,GGAUCACAGAAUAGAACAATT against Hpgds,inactive: 0.237
11,GGAACCUACUUGUUACCUUTT against Nlrp5,inactive: 0.731
12,GCGACUUAGAAAAGAACAGTT against Ccdc58,inactive: 1.91
13,CGAGUUCCCUAUCAAUCUCTT against Flrt1,inactive: -1.95
14,GUUUCUGGGUGAGCGCGAUTT against Fzd2,active: 2.29
15,GGAGCUAGAGUGCUCAAGATT against Ceacam14,inactive: -1.5
16,GGCAGACCCAUAAUUAAUCTT against Arsk,inactive: -0.567
17,GCCAGAAGUCCGAUACUACTT against Plk2,inactive: -0.12
18,GAAUGCUAUUAGGAAACUGTT against Olfr1226,inactive: 0.306
19,UUUUGCUGAAUGGUAUGUATT against Cpsf6,inactive: -0.304
20,GGCUUACCAAUGUGAAUGGTT against Trpv5,inactive: -0.708
21,GGAAUCUUUAGACCAUCUCTT against Myh1,active: 5.3
22,GGACAUGUACAGACCUCACTT against Cacng5,inactive: 0.225

# Retrieved one by one from the entries so far, 3 records:
row,Sequence,z-score
22,GGACAUGUACAGACCUCACTT against Cacng5,inactive: 0.225
14,GUUUCUGGGUGAGCGCGAUTT against Fzd2,active: 2.29
7,GCGAAUUUUUGACACCUAUTT against Elmod2,inactive: 0.888

# (listing goes on)

row,Sequence,z-score
1,GGCCAAGGAAAGUAUGAAUTT against Sox7,inactive: 0.285
2,GGCAAGGAUUUGUGUUUGCTT against Tmem115,inactive: -0.169
3,GGACAUUGUCCUGAAUGGCTT against Hsd3b3,inactive: -0.924
4,GCCUUAGGAAAUUCUCAAUTT against Rbm12b2,inactive: 0.334
5,GGAACUAGAAGAAAUGUUATT against Mrps9,inactive: 0.768
6,GGAAGAGCAACAUGUUUAATT against Zfp710,inactive: -0.543
7,GGAGAAUCAUGGACAGCUGTT against Olfr2,inactive: -0.189
8,GGUUCUUUCAGAAAAUGGATT against Kcnip3,inactive: 0.88
9,GGAAAAAGGCACGAAAUGATT against Ppa2,inactive: -1.74
10,GGUCACCCAUGUACUUCUUTT against Olfr1189,inactive: 0.404
11,GGCAGAGCUCAAAAAGAAATT against Ankrd1,inactive: -1.94
12,GCCGGUGACUUUCUAAUUUTT against Yrdc,inactive: -1.32
13,CGGGUCCUGUGAAGAACUATT against Sugp1,inactive: 0.617
14,GCACUGAUUACGCUAAUUUTT against Skap2,inactive: 0.264
15,GGCACUUGUGAGAAAAAUCTT against Insc,inactive: -1.66
16,GGAGAGCAUUUCUUAAGAATT against Pex14,inactive: -0.645
17,GCUAACCUUUGGAAUUGGATT against Rnf139,inactive: -0.0299
18,CCCGUUUGAGCUACUUCUUTT against Rgs2,inactive: -0.807
19,GGCAUAUCCUCCUUAUCCATT against Dazl,active: -2.2
20,GCUGUUCCAUGUUAAAAAATT against Esm1,inactive: 0.765
21,CCCAUCAGAUUGUUAUUAATT against Olfr652,inactive: 0.84
22,CCAGAUGACAAAUUUACCCTT against Tdpoz4,inactive: 0.655

# As a working copy, part of the list above:
row,Sequence,z-score
8,GCCAAAUUUUGGGAUGUAATT against Dtl,inactive: 1.6
9,GGCUCUAGGACCAAAAUUUTT against Hsd3b2,inactive: -0.0259
10,GGAUCACAGAAUAGAACAATT against Hpgds,inactive: 0.237

# (continued)

row,Sequence,z-score
1,GGGACUGGAAUUGACAUCCTT against Trpm4,inactive: -1.38
2,GGAACAGAUACCUUUCUAUTT against Odam,inactive: 1.12
3,GCAGAAAAACCUGUGAAAATT against Pcnp,inactive: 1.57
4,AAAGCGCAUUCACAAAAAUTT against Olfr1453,inactive: 0.197
5,GGAGAGGAAGACUUUGAAUTT against Pin1,inactive: -0.594
6,AGAAAACUCGAGGUGACCATT against Znhit1,inactive: -0.288
7,GGGCAUUGGAAAACUAAAGTT against Lrrc1,inactive: 0.829
8,GGUAAAAGGUGCCCUUCAATT against Olfr1056,inactive: -0.517
9,GGAAUGAUGCCACAGAGGUTT against Sost,inactive: 0.413
10,GGUUACAGUAAUUCAGUGUTT against Tdrp,inactive: -0.372
11,GCCAACUUGUACCAAACGCTT against Slc25a19,inactive: 0.398
12,GCAUGAUGCAAGGACUCUCTT against Onecut2,inactive: 1.08
13,GGUGAUAAAACCUGUUUCATT against Col19a1,inactive: 0.256
14,GCACAACAUCGAAAUUGAGTT against Lingo1,inactive: -1.1
15,GCUACUACAGUCAGUCGCATT against Galr2,inactive: 0.537
16,GGAUGCAGAUGCUGUGGACTT against S100a1,inactive: -0.918
17,GCCCGUCGGAAAGAAGAAATT against Gpatch11,inactive: 0.66
18,GGCUACAGGGUCUUAUUUCTT against Alx3,inactive: 0.952
19,GGACAUAUAUAGCAAGGAGTT against Polrmt,inactive: 1.07
20,GGAUAAUUUGGAUUUCGAGTT against Pcdhgb2,inactive: -0.172
21,GCUUGCUCGGAGCUUAAGATT against Pik3c3,inactive: 0.286
22,GCCCAAGCGAUCUUUGCAUTT against Vangl2,inactive: -0.273

row,Sequence,z-score
1,GGCUGAGAAGCUAAAGGAGTT against Pabpn1,inactive: -1.97
2,GGAUUACCCAUCCUACACATT against Eya4,inactive: 0.011
3,GGUUAACUUGAGCUCUGUGTT against Znrf4,inactive: -1.98
4,UUGUGAUUCCAAUUUCCCUTT against Olfr1330,inactive: -0.32
5,GGUAAAACUGUAGUGAUCGTT against Slfn4,inactive: -1.21
6,GCUACGUCACUUCUGUUUUTT against Acmsd,inactive: -0.0522
7,GCGAAUGGAUUGCUACAAUTT against Klhl7,inactive: 1.47
8,GCUCACAUUGAGUGGUUGGTT against Ncbp3,inactive: 0.542
9,GGGAGUCAUUCCCAAUGAUTT against Mras,inactive: 0.776
10,GCUGGUGAUUCCUAAACUGTT against Oprd1,inactive: -0.847
11,CCAAGAUUACUGAACCUACTT against Lin28a,inactive: 0.216
12,GGUGUUCCACAAGCAAUGGTT against Vmn1r234,inactive: -0.251
13,GCUUGGCCAUCAUUGGAGCTT against H2-Q6,inactive: 0.882
14,GGAACAUACUGCUAAUAUGTT against Brcc3,inactive: -0.202
15,GGAGACUUUUGAAAUAGAATT against C8a,inactive: -0.588
16,GGAAAGUGUCACCAAGUUCTT against Trav13-5,inactive: 0.0286
17,GCAAUGGCUGAAAUCCUCCTT against Dnmt3l,inactive: 1.49
18,GGAGGGACAUGAUUUUGAATT against Pfkfb2,active: 2.22
19,GGUGCUGAUUACAGUAGAATT against Pcdhga10,active: 2.01
20,GCUGGAUAAGAAUGGCGAUTT against S100g,inactive: 1.94
21,GGUGAACACCGUUCAGUUUTT against Wdr83,inactive: -0.396
22,GGUGAACUUGACCUCACAGTT against Sp1,inactive: -0.416

row,Sequence,z-score
1,GCAUGUACGUCGCCUUGUUTT against Dctd,inactive: 0.242
2,GGCUUACAGUCCUGAAUUUTT against Gpr17,inactive: 1.97
3,GCCUUUGCUGAGAUAACUUTT against Birc5,inactive: 0.6
4,GGGUCCCUAAGCAUGUUCCTT against Slfn10-ps,inactive: 0.618
5,GGUUCCAAGAACCCUCAUCTT against Swap70,inactive: -0.368
6,GCCACCCAGUUAUUUGAAATT against Dmac1,inactive: 0.913
7,CCAGCCUGAAAGAAGAGAATT against Ifna14,inactive: 0.116
8,CGAAUACUUGAUGUCCAUGTT against Harbi1,active: -2.16
9,GGCAGUAACUUAAAACAGATT against Mecp2,inactive: -0.139
10,CGUGGUUAAGUCACGACUGTT against Slc25a29,inactive: 0.7
11,CCGAUGGAGGUUCCUACUGTT against Cry2,inactive: -0.285
12,GCUAUUUGACUUGUUGUAATT against Rab30,inactive: 0.269
13,GGCAUUUGGGACUUGUGUGTT against Olfr78,inactive: -1.96
14,GGGACUUUGCCAAGAAUACTT against Klkb1,inactive: 0.0402
15,GGACAAACUCCGAGACUCCTT against Utf1,inactive: -0.339
16,CGCCUUAUAAUAUACCUAUTT against Clmp,inactive: 1.12
17,GCUGAAUGCCCAAUGCACUTT against Gabra1,inactive: -0.837
18,GGAAGAGAACCAAAACACATT against Zfp647,inactive: -0.77
19,GGUGGUAGUUAAUAAAGCUTT against Ctnnb1,inactive: -0.236
